These are yes or no findings as the source states them, for the method shown. Binding can be weak; no strength is given.
Assays:
[1] = target: endogenous LAG-3 expressed on SEB-stimulated cynomolgus monkey PBMCs (cynomolgus monkey); experiment: FACS on SEB-stimulated cynomolgus monkey PBMCs
[2] = target: endogenous LAG-3 expressed on SEB-stimulated cynomolgus monkey PBMCs (cynomolgus monkey); experiment: FACS on SEB-stimulated cynomolgus monkey PBMCs (FIGS. 18A-18B)

- binding [1]: binds
- binding [2]: binds
B1: hLAG-3 mAb 6 (1.1) (antibody, V domains shown)
VH: QVQLVQSGAEVKKPGASVKVSCKASGYTFTDYNMDWVRQAPGQGLEWMGDINPDNGVTIYNQKFEGRVTMTTDTSTSTAYMELRSLRSDDTAVYYCAREADYFYFDYWGQGTTLTVSS
VL: DIQMTQSPSSLSASVGDRVTITCRASQDVSSVVAWYQQKPGKAPKLLIYSASYRYTGVPSRFSGSGSGTDFTLTISSLQPEDFATYYCQQHYSTPWTFGGGTKLEIK

From patent publication US20190085075A1
